Experimental data taken from PMC7374096.
No constants are given. Whether binding was seen depends on the method and setting. Binding seen in cells or lysates may run through a third protein. Some results given as binding are weak or reduced against the parent protein; the word gives no strength.

Protein sequences, listed by entry. Tags and fused reporters are not part of them. Lines headed by an entry give the natural chain unless they say otherwise; changes in a name come on top. Residues count along the entry.
GFP-RLD1 fusion containing 365–794 amino acid residues of HERC1 (pFG41 construct) (Q15751, residues 365-794): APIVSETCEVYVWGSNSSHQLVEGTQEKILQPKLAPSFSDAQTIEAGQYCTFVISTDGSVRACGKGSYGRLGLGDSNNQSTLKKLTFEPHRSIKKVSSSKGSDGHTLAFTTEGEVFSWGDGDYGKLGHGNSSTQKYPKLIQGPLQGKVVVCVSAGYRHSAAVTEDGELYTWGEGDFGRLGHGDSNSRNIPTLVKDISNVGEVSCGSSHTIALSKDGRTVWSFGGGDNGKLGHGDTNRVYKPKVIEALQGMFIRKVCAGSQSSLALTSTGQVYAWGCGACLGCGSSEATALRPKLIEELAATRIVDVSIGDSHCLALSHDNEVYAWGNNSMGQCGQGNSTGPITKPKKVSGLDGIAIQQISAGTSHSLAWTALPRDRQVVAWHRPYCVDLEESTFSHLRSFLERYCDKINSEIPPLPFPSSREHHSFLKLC
UniProt Q00610: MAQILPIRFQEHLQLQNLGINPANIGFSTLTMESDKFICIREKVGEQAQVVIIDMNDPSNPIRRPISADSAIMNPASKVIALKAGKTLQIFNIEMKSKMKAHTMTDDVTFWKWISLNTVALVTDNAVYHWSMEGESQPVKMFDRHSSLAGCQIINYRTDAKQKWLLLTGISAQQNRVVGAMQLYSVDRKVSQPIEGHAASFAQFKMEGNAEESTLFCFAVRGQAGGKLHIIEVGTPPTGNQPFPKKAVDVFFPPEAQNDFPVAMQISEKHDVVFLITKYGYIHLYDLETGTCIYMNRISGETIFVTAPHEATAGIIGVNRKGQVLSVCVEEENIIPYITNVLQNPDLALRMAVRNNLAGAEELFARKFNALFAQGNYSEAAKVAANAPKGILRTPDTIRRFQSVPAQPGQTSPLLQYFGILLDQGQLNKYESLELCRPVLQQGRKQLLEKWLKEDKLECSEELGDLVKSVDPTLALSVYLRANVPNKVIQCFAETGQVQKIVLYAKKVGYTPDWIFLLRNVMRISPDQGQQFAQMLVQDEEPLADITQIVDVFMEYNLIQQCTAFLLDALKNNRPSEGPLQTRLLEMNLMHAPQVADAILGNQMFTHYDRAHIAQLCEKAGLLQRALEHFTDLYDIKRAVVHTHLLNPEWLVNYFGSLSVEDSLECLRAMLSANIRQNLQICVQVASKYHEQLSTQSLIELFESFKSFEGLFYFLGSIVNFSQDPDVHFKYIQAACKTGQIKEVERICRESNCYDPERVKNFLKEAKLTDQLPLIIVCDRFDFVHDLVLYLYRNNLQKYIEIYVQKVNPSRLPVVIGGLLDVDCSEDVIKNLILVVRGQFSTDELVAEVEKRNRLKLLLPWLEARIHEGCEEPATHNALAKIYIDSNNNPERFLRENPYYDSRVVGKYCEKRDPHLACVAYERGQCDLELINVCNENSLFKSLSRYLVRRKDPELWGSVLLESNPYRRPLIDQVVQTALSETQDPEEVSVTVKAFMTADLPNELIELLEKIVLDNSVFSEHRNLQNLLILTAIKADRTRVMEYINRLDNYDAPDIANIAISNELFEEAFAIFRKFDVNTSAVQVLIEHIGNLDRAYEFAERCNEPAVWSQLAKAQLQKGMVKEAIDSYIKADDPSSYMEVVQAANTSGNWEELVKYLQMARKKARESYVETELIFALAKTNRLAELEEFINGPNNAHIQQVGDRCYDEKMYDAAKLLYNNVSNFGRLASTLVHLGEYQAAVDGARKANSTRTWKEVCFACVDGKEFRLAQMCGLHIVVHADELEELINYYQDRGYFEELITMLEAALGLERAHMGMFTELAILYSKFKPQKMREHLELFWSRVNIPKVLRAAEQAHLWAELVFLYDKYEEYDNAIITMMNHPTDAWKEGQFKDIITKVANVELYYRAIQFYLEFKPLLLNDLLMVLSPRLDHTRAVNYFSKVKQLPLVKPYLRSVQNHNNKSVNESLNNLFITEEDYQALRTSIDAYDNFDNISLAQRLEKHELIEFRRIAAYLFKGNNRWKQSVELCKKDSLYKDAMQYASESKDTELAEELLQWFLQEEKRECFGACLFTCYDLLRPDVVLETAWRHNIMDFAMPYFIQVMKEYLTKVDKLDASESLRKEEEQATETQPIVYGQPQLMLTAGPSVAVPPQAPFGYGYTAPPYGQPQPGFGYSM

Tests used:
[1] = target: GFP-RLD1 fusion (HERC1 365–794) with the tambaleante mutation Gly483Glu (pFG44 construct) (UniProt Q15751); test: pull-down; GFP fusion constructs expressed in HEK-293T cells for 72 h; cell lysates incubated with GFP-Trap Agarose resin about 2 h at 4 °C; washed three times with NP40 buffer; retained proteins immunoblotted (anti-clathrin heavy chain, anti-GFP, anti-HERC1)
[2] = target: GFP-RLD1 fusion containing 365–794 amino acid residues of HERC1 (pFG41 construct) (UniProt Q15751); test: as above

binding [1]: no binding
binding [2]: binds
Substance: clathrin heavy chain (from UniProt Q00610 1-1675)
